# The campaign covered roughly 410,000 compounds. About 310 (0.076%) were called active. This list was built around the results that the source calls inconclusive (neither active nor inactive); the mix of calls is not that of the screen. Calls follow the shape of the dose curve; as a rule, active = well fitted activation curve with a large enough effect; inconclusive = small, poorly fitted or top-dose-only effect, or another doubt; inactive = no such curve, though single readings can be large or run the other way. A potency beside an inconclusive call is a rough fit, not a confirmed value.
# Amino acid sequences for entries named in this document (tags omitted). A change or cut given only in a name is not applied to a line headed by its entry.
# UniProt Q03431: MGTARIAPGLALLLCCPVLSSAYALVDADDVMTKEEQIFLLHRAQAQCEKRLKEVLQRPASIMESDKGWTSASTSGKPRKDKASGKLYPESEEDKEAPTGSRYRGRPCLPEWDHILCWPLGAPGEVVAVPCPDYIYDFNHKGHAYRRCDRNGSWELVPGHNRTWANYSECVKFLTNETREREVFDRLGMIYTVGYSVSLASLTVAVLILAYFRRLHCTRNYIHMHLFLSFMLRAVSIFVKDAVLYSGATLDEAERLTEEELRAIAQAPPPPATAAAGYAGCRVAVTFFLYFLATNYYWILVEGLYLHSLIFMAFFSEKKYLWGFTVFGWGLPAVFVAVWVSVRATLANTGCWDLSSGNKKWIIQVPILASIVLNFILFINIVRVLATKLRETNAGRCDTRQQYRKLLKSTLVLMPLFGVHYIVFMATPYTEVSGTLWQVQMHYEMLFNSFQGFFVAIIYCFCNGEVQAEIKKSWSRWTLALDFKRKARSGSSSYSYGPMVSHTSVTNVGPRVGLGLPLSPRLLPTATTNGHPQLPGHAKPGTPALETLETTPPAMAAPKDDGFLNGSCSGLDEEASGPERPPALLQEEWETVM
# Molecular target: Parathyroid hormone/parathyroid hormone-related peptide receptor (Homo sapiens) (UniProt Q03431)
# Test: qHTS for PTHR1 Agonists: Primary Screen; also: nearly all actives have a fitted effect of over 55% in size
# Conditions: HEK293 GP2 PTHR1 cells, GloSensor cAMP luminescence, 1 h; activation: at 115 µM (top of the series) unless noted; series mostly up to 115 µM
# Outline: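 HEK-293-derived GP2 cells expressing PTHR1 and a GloSensor cAMP reporter, 3,000/well, plated overnight, given luciferin plus IBMX (each 0.5 mM as added) for 1 h at 37 °C, then compound for 1 h at 37 °C. Luminescence was read after 15 min at room temperature.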
# Potency is read from the fitted curve at half-maximal effect.
SMILES,Potency,activation
N#CCCn1cc(CNC2CCC(O)CC2)c2ccccc21 (centres undefined),inactive,–
COC(=O)c1c(NC(=O)CSc2ccccc2N)sc(C)c1C,"inconclusive: 10 µM [activator, partial curve, poor fit]",–
CC(C)(C)OC(=O)N1CCC(c2c(C(=O)N3CCN(c4ncccn4)CC3)cnn2-c2ccccc2)CC1,"inconclusive: 22.4 µM [activator, single point]",–
CCOC(=O)C1CCN(C(=S)Nc2ccccc2)CC1,"inconclusive: 7.08 µM [activator, full curve]",–
CCOC(=O)c1cccc(NC(=O)c2cc(CN3CCOCC3)on2)c1,inactive,–
COc1ccc(-n2c(C)nnc2SCC(=O)NC2CC2)cc1,"inconclusive: 50.1 µM [activator, partial curve, poor fit]",–
CCOC(=O)CCC(=O)NCc1ccc2[nH]c(C)cc2c1,"inconclusive: 3.16 µM [activator, full curve, poor fit]",–
COc1ccc(C(=O)N/N=C/c2cc3ccccc3[nH]c2=O)cc1,inactive,–
COc1ccc(S(=O)(=O)NCCc2c[nH]c3ccc(C)cc23)cc1,–,inconclusive: 36.8% [activator]
COCCc1nn2c(=O)cc(COC(=O)COc3ccc(F)cc3)nc2s1,"inconclusive: 56.2 µM [activator, partial curve, poor fit]",–
Cc1cccc(NC(=O)CC2SC(=NC3CCCCC3)NC2=O)c1 (centres undefined),–,inconclusive: 46.6% [activator] [at 57.5 µM]
Cc1ccc(-n2ncc3c(N4CCC(C(N)=O)CC4)ncnc32)c(C)c1,–,inconclusive: 31.6% [activator]
O=C(O)c1cccc(S(=O)(=O)Nc2ccccc2C(=O)NCCc2ccccc2)c1,"inconclusive: 44.7 µM [activator, partial curve, poor fit]",–
CCN1CCN(C(c2ccccc2)c2sc3nc(-c4ccco4)nn3c2O)CC1 (centres undefined),"inconclusive: 141 µM [activator, single point]",–
COc1ccc(Nc2ncc(C(=O)N3CCN(c4cccc(Cl)c4)CC3)c3ccccc23)cc1,inactive,–
CCCN[C@@H]1C(=O)N2C(C(=O)OCCC)=C(C)CS[C@H]12,–,inconclusive: 35.7% [activator]
CCOc1ccc(-c2nc(SCC(=O)Nc3ccc(C)c(C)c3)n3[nH]c(=O)cc3n2)cc1,inactive,–
CCc1nnc(SCc2nc(-c3ccc(OC)c(OC)c3)oc2C)c2cc3sc(C)cc3n12,"inconclusive: 158 µM [activator, single point]",–
Cc1c(C(=O)O)[nH]c2c1C(=O)CC(c1ccccc1)C2 (centres undefined),–,inconclusive: 8.78% [activator]
O=C(/C=C/c1ccc([N+](=O)[O-])cc1)NCCc1ccc(F)cc1,inactive,–
Cc1ccccc1S(=O)(=O)Cc1ccc(C(=O)NC2CCCCC2)o1,"inconclusive: 35.5 µM [activator, partial curve, poor fit]",–
CCOc1ccc(OCC)c(S(=O)(=O)N2CCCCC2C)c1 (centres undefined),"inconclusive: 1.26 µM [activator, partial curve, poor fit]",–
O=C(CSc1nc2ccccc2o1)N1c2ccccc2Sc2ccc(Cl)cc21,"inconclusive: 56.2 µM [activator, single point]",–

# Among those listed so far, two contain fluorine.
SMILES,Potency,activation
COCCc1nn2c(=O)cc(COC(=O)COc3ccc(F)cc3)nc2s1,"inconclusive: 56.2 µM [activator, partial curve, poor fit]",–
O=C(/C=C/c1ccc([N+](=O)[O-])cc1)NCCc1ccc(F)cc1,inactive,–

# Looked up by compound from above (4):
SMILES,Potency,activation
CCOC(=O)C1CCN(C(=S)Nc2ccccc2)CC1,"inconclusive: 7.08 µM [activator, full curve]",–
CCOc1ccc(OCC)c(S(=O)(=O)N2CCCCC2C)c1 (centres undefined),"inconclusive: 1.26 µM [activator, partial curve, poor fit]",–
N#CCCn1cc(CNC2CCC(O)CC2)c2ccccc21 (centres undefined),inactive,–
CCc1nnc(SCc2nc(-c3ccc(OC)c(OC)c3)oc2C)c2cc3sc(C)cc3n12,"inconclusive: 158 µM [activator, single point]",–

# Later entries

SMILES,Potency,activation
Cc1ccc(C)c(OCCC(=O)NCCc2ccc(Cl)cc2)c1,inactive,–
Cc1cccc(N2CCN(C(c3ccccc3)c3nnnn3C(C)(C)C)CC2)c1C (centres undefined),"inconclusive: 31.6 µM [activator, single point]",–
CCCn1cc(S(=O)(=O)c2cc(C)ccc2C)c(=O)c2cc(F)c(N3CCOCC3)cc21,–,inconclusive: 44.6% [activator]
CCOC(=O)c1ccc2c(c1)nc(-c1ccc(F)cc1)c1nccn12,inactive,–
Cc1csc(NC(=O)CSc2ccccc2F)n1,–,inconclusive: -62.9% [activator]
NS(=O)(=O)c1cccc(NC(=O)c2ccc(NS(=O)(=O)c3cccc([N+](=O)[O-])c3)cc2)c1,inactive,–
Cc1oc2ncn(C)c(=O)c2c1C(=O)NC(C)c1ccccc1 (centres undefined),"inconclusive: 17.8 µM [activator, partial curve, poor fit]",–
O=C(Nc1nc(-c2cccnc2)cs1)c1cccc([N+](=O)[O-])c1,inactive,–
COc1ccc(CC(=O)Nc2sc3c(c2C(=O)Nc2cccc(C)c2)CCCCC3)cc1,"inconclusive: 89.1 µM [activator, partial curve, poor fit]",–
CCCc1nnc(SCC(=O)NC2CC2)n1CC,–,inconclusive: 59.9% [activator]
COc1ccc(CN2CCN(C(C)C)C(CCO)C2)cc1Cn1cccn1 (centres undefined),–,inconclusive: 49.4% [activator]
O=C(Cc1ccc(Cl)cc1)Oc1cccc2cccnc12,"inconclusive: 50.1 µM [activator, partial curve, poor fit]",–
Cc1noc(C)c1S(=O)(=O)Nc1cccc(CO)c1,"inconclusive: 141 µM [activator, single point]",–
CN(CC1CCOCC1)C(=O)CC1C(=O)NCCN1Cc1ccc(F)c(F)c1 (centres undefined),–,inconclusive: 35.6% [activator]
COc1ccc(C2OC(=O)CC2C(=O)NCc2ccccc2Cl)cc1OC (centres undefined),"inconclusive: 15.8 µM [activator, partial curve]",–
COc1ccc2sc(N(Cc3cccnc3)C(=O)c3cccs3)nc2c1,inactive,–
O=C(NCC1(N2CCCCC2)CCCCC1)c1cccc(S(=O)(=O)Nc2ccc(F)cc2)c1,"inconclusive: 126 µM [activator, single point]",–
Cc1cccc(NC(=O)c2ccccc2-c2ccccc2)c1,inactive,–
O=C(O)C(Cc1c[nH]c2ccccc12)N1C(=O)C2C3c4ccccc4C(c4ccccc43)C2C1=O (centres undefined),"inconclusive: 141 µM [activator, single point]",–
COc1ccc(CCC(C)NC2C3CC4CC(C3)CC2C4)cc1 (centres undefined),"inconclusive: 2.82 µM [activator, partial curve, poor fit]",–
O=C(OCC(=O)c1c[nH]c2ccccc12)c1cccc([N+](=O)[O-])c1,inactive,–
COCCn1c(=S)[nH]c2cc(C(=O)NCCCN3CCOCC3)ccc2c1=O,"inconclusive: 39.8 µM [activator, single point]",–
O=C(NCc1cccc(Cl)c1)c1ccc2c(Cl)c3c(nc2c1)CCCC3,inactive,–

SMILES,Potency,activation
O=C1CN=C(Nc2cccc(C(F)(F)F)c2)N1C1CCCC1,inactive,–
CCCCCC(O)C=CC1C(O)CC(O)C1CC=CCCCC(=O)O (centres undefined),"inconclusive: 44.7 µM [activator, single point]",–
CN(C)c1cc(Cl)c2nonc2c1N,inactive,–
CCOc1ccccc1NC(=O)CSc1ncc(S(=O)(=O)c2ccc(C(C)(C)C)cc2)c(=O)[nH]1,"inconclusive: 79.4 µM [activator, partial curve, poor fit]",–
O=C1CCCN1CCCNC(=S)Nc1ccc(F)cc1,"inconclusive: 79.4 µM [activator, single point]",–
Cc1ccc(N(Cc2cc(=O)[nH]c3ccccc23)C(=O)CCl)c(C)c1,inactive,–
COc1ccc(N2CCN(C(=O)c3ccc(Nc4nc5ccccc5n5nnnc45)cc3)CC2)cc1,"inconclusive: 44.7 µM [activator, partial curve, poor fit]",–
C=CCNC(=O)COC(=O)c1ccc(Sc2nncn2C)c([N+](=O)[O-])c1,–,inconclusive: 36.6% [activator]
NC(=NCc1ccccc1)NC(=O)c1nc(Cl)c(N)nc1N,inactive,–
Cc1c(CN2CCc3c([nH]c4ccccc34)C2CC(C)C)cnn1C (centres undefined),"inconclusive: 126 µM [activator, single point]",–
Cc1cccc(NC(=O)NCc2cccnc2)c1C,–,inconclusive: 61.1% [activator]
CCOc1ccc(NC(=O)CSc2ncc3c(n2)-c2cc(Cl)ccc2N(C)S3(=O)=O)cc1,–,inconclusive: 6.01% [activator]
CN(C)S(=O)(=O)c1ccc(NC(=O)Cn2c(-c3ccccc3)noc2=O)cc1,"inconclusive: 28.2 µM [activator, partial curve, poor fit]",–
CCN1CCCC(Sc2nc3c([nH]2)c(=S)n(C)c(=O)n3C)C1 (centres undefined),"inconclusive: 70.8 µM [activator, partial curve, poor fit]",–
O=C1NC[C@@H](CCCCN2C[C@H](Cc3ccccc3)N(CCc3ccccc3)C(=O)C2=O)N(CCc2ccccc2)C1=O,"inconclusive: 112 µM [activator, single point]",–
COc1cccc2c1[C@@H]1CN(CCCCn3c(=O)[nH]c4c(sc5ncc(-c6ccccc6)nc54)c3=O)C[C@@H]1CO2,inactive,–
Cc1ccc(C)c(N2CCN(c3nccn4nc(-c5ccc(Br)cc5)cc34)CC2)c1,–,inconclusive: -93.5% [activator]
Cc1[nH]c2ccccc2c1C(O)CN1CCN(c2cccc(C(F)(F)F)c2)CC1 (centres undefined),inactive,–
COc1cc(OC)c(S(=O)(=O)Nc2ccc(C(=O)N3CCCC3)cc2)cc1NC(C)=O,"inconclusive: 141 µM [activator, single point]",–
O=C(CN(Cc1ccccc1)S(=O)(=O)c1ccc2c(c1)OCCO2)Nc1ccc2c(c1)OCCO2,"inconclusive: 4.47 µM [activator, partial curve, poor fit]",–
Cc1cc(S(=O)(=O)/N=C(\N)c2ccc(C(N)=O)cc2)cc(C)c1F,–,inconclusive: 49.9% [activator]
CCN(CC)S(=O)(=O)c1cc(C(=O)Nc2ccccc2C(=O)O)ccc1OC,inactive,–
CCN(CC)CCN1C(=O)Cn2c(C)c(C)c3cccc1c32,"inconclusive: 5.01 µM [activator, full curve, poor fit]",–
